PubChem BioAssay AID743121 | NCATS | 2013
Screen: 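Partners whose loss is lethal together with topoisomerase I blockade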 (primary screen). System: MDA-MB-231 cells, a human breast cancer line. Reagents: single siRNA against human genes, 20 nM siRNA (0.8 pmol per well). Timing: 120 h (drug added 48 h after transfection, read 72 h later). Challenge: camptothecin 20 nM (about EC30) for 72 h; vehicle 0.1% DMSO in parallel plates. Read-out: 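Cell viability by ATP luminescence (CellTiter-Glo) as % of non-targeting siRNA wells, and the log2 ratio of viability without drug over viability with camptothecin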. Direction: log2 vehicle/camptothecin viability: higher = stronger sensitisation to camptothecin. Hit rule: 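Active genes have an RSA gene-level p-value below 0.001, computed from the ratios of their separate siRNAs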.
In all, the deposit lists about 26,000 reagents; below is an unselected part. 167 of all reagents (0.63%) count as active. 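Calls are per gene from RSA p-values that are not deposited; an individual active-marked siRNA can sensitise only weakly.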 A number with no mark means an inactive call. The numbers tell different reagents against one gene apart. Further read-outs or replicates are left out here.

Depletion of SMG1 (GeneID 23049) #1 gave: log2 vehicle/camptothecin viability 0.411. SMG1 (GeneID 23049) #2 gave log2 vehicle/camptothecin viability 0.84. SMG1 (GeneID 23049) #3 scored log2 vehicle/camptothecin viability -0.087. Knock-down of SMG1 (GeneID 23049) #4 resulted in: log2 vehicle/camptothecin viability 0.326. OR12D3 (GeneID 81797) #1 showed log2 vehicle/camptothecin viability 0.209. Against OR12D3 (GeneID 81797) #2 the deposit lists log2 vehicle/camptothecin viability 0.0813.

With knock-down of OR12D3 (GeneID 81797) #3 the results were log2 vehicle/camptothecin viability -0.17. For OR12D3 (GeneID 81797) #4, the values are log2 vehicle/camptothecin viability -0.148. TOP3A (GeneID 7156) #1 gave log2 vehicle/camptothecin viability 0.18. Depletion of TOP3A (GeneID 7156) #2 came out at: log2 vehicle/camptothecin viability 0.219. TOP3A (GeneID 7156) #3 gave log2 vehicle/camptothecin viability -0.277. For ELOB (GeneID 6923) #1, the values are log2 vehicle/camptothecin viability -0.158.

Silencing of ELOB (GeneID 6923) #2 gave: log2 vehicle/camptothecin viability 0.783. ELOB (GeneID 6923) #3 showed log2 vehicle/camptothecin viability -0.445. Against ELOB (GeneID 6923) #4 the deposit lists log2 vehicle/camptothecin viability -0.0147. Against LCK (GeneID 3932) #1, the entry reads log2 vehicle/camptothecin viability -0.2. For LCK (GeneID 3932) #2, the entry reads log2 vehicle/camptothecin viability -0.316. LCK (GeneID 3932) #3 gave log2 vehicle/camptothecin viability -0.186.

Against LCK (GeneID 3932) #4, the values are log2 vehicle/camptothecin viability -0.0964. For RALB (GeneID 5899) #1, the entry reads log2 vehicle/camptothecin viability -0.247. With knock-down of RALB (GeneID 5899) #2 the results were log2 vehicle/camptothecin viability 0.0206. Depletion of RALB (GeneID 5899) #3 came out at: log2 vehicle/camptothecin viability -0.242. With knock-down of RALB (GeneID 5899) #4, the record shows log2 vehicle/camptothecin viability 0.0557. Against SLC18A3 (GeneID 6572) #1 the deposit lists log2 vehicle/camptothecin viability 0.311.

For SLC18A3 (GeneID 6572) #2, the entry reads log2 vehicle/camptothecin viability -0.204. Knock-down of SLC18A3 (GeneID 6572) #3 resulted in: log2 vehicle/camptothecin viability -0.151. After knock-down of SLC18A3 (GeneID 6572) #4, the screen gave log2 vehicle/camptothecin viability 0.0188. KIF25 (GeneID 3834) #1 showed log2 vehicle/camptothecin viability -0.0568. After knock-down of KIF25 (GeneID 3834) #2, the record shows log2 vehicle/camptothecin viability -0.125. KIF25 (GeneID 3834) #3 scored log2 vehicle/camptothecin viability 0.698.

With knock-down of PJA2 (GeneID 9867) #1, the screen gave log2 vehicle/camptothecin viability 0.368. Silencing of PJA2 (GeneID 9867) #2 gave: log2 vehicle/camptothecin viability -0.171. Knock-down of PJA2 (GeneID 9867) #3 resulted in: log2 vehicle/camptothecin viability -0.275. For PJA2 (GeneID 9867) #4, the entry reads log2 vehicle/camptothecin viability -0.0747. Silencing of MAP3K11 (GeneID 4296) #1 came out at: log2 vehicle/camptothecin viability -0.75. With knock-down of MAP3K11 (GeneID 4296) #2, the record shows log2 vehicle/camptothecin viability 1.01.

For MAP3K11 (GeneID 4296) #3 the deposit lists log2 vehicle/camptothecin viability -0.527. MAP3K11 (GeneID 4296) #4 scored log2 vehicle/camptothecin viability -0.821.

Entries above whose target name starts with L or l (4):
LCK (GeneID 3932) #1 → log2 vehicle/camptothecin viability: -0.2
LCK (GeneID 3932) #2 → log2 vehicle/camptothecin viability: -0.316
LCK (GeneID 3932) #3 → log2 vehicle/camptothecin viability: -0.186
LCK (GeneID 3932) #4 → log2 vehicle/camptothecin viability: -0.0964
